Measurements: the supplement of paper PMC10849652
Some of the results follow.

Amino acid sequences for entries named in this document (tags omitted). A change or cut given only in a name is not applied to a line headed by its entry.
UniProt P52294, whole entry, looked up: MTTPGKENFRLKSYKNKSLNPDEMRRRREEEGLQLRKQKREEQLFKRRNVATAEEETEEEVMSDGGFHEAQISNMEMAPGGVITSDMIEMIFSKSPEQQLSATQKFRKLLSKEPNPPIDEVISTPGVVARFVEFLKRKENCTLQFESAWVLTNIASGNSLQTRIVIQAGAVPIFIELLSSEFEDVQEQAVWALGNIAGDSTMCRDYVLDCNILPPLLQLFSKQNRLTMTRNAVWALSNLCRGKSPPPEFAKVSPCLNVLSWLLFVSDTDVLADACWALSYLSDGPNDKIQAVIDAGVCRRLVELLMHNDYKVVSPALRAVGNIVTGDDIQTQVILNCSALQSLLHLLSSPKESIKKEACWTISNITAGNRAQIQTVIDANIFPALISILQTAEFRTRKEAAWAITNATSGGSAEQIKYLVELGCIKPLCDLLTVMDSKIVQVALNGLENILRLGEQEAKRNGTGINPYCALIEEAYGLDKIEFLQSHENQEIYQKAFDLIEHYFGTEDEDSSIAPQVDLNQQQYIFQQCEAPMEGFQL
UniProt O14686, whole entry, looked up: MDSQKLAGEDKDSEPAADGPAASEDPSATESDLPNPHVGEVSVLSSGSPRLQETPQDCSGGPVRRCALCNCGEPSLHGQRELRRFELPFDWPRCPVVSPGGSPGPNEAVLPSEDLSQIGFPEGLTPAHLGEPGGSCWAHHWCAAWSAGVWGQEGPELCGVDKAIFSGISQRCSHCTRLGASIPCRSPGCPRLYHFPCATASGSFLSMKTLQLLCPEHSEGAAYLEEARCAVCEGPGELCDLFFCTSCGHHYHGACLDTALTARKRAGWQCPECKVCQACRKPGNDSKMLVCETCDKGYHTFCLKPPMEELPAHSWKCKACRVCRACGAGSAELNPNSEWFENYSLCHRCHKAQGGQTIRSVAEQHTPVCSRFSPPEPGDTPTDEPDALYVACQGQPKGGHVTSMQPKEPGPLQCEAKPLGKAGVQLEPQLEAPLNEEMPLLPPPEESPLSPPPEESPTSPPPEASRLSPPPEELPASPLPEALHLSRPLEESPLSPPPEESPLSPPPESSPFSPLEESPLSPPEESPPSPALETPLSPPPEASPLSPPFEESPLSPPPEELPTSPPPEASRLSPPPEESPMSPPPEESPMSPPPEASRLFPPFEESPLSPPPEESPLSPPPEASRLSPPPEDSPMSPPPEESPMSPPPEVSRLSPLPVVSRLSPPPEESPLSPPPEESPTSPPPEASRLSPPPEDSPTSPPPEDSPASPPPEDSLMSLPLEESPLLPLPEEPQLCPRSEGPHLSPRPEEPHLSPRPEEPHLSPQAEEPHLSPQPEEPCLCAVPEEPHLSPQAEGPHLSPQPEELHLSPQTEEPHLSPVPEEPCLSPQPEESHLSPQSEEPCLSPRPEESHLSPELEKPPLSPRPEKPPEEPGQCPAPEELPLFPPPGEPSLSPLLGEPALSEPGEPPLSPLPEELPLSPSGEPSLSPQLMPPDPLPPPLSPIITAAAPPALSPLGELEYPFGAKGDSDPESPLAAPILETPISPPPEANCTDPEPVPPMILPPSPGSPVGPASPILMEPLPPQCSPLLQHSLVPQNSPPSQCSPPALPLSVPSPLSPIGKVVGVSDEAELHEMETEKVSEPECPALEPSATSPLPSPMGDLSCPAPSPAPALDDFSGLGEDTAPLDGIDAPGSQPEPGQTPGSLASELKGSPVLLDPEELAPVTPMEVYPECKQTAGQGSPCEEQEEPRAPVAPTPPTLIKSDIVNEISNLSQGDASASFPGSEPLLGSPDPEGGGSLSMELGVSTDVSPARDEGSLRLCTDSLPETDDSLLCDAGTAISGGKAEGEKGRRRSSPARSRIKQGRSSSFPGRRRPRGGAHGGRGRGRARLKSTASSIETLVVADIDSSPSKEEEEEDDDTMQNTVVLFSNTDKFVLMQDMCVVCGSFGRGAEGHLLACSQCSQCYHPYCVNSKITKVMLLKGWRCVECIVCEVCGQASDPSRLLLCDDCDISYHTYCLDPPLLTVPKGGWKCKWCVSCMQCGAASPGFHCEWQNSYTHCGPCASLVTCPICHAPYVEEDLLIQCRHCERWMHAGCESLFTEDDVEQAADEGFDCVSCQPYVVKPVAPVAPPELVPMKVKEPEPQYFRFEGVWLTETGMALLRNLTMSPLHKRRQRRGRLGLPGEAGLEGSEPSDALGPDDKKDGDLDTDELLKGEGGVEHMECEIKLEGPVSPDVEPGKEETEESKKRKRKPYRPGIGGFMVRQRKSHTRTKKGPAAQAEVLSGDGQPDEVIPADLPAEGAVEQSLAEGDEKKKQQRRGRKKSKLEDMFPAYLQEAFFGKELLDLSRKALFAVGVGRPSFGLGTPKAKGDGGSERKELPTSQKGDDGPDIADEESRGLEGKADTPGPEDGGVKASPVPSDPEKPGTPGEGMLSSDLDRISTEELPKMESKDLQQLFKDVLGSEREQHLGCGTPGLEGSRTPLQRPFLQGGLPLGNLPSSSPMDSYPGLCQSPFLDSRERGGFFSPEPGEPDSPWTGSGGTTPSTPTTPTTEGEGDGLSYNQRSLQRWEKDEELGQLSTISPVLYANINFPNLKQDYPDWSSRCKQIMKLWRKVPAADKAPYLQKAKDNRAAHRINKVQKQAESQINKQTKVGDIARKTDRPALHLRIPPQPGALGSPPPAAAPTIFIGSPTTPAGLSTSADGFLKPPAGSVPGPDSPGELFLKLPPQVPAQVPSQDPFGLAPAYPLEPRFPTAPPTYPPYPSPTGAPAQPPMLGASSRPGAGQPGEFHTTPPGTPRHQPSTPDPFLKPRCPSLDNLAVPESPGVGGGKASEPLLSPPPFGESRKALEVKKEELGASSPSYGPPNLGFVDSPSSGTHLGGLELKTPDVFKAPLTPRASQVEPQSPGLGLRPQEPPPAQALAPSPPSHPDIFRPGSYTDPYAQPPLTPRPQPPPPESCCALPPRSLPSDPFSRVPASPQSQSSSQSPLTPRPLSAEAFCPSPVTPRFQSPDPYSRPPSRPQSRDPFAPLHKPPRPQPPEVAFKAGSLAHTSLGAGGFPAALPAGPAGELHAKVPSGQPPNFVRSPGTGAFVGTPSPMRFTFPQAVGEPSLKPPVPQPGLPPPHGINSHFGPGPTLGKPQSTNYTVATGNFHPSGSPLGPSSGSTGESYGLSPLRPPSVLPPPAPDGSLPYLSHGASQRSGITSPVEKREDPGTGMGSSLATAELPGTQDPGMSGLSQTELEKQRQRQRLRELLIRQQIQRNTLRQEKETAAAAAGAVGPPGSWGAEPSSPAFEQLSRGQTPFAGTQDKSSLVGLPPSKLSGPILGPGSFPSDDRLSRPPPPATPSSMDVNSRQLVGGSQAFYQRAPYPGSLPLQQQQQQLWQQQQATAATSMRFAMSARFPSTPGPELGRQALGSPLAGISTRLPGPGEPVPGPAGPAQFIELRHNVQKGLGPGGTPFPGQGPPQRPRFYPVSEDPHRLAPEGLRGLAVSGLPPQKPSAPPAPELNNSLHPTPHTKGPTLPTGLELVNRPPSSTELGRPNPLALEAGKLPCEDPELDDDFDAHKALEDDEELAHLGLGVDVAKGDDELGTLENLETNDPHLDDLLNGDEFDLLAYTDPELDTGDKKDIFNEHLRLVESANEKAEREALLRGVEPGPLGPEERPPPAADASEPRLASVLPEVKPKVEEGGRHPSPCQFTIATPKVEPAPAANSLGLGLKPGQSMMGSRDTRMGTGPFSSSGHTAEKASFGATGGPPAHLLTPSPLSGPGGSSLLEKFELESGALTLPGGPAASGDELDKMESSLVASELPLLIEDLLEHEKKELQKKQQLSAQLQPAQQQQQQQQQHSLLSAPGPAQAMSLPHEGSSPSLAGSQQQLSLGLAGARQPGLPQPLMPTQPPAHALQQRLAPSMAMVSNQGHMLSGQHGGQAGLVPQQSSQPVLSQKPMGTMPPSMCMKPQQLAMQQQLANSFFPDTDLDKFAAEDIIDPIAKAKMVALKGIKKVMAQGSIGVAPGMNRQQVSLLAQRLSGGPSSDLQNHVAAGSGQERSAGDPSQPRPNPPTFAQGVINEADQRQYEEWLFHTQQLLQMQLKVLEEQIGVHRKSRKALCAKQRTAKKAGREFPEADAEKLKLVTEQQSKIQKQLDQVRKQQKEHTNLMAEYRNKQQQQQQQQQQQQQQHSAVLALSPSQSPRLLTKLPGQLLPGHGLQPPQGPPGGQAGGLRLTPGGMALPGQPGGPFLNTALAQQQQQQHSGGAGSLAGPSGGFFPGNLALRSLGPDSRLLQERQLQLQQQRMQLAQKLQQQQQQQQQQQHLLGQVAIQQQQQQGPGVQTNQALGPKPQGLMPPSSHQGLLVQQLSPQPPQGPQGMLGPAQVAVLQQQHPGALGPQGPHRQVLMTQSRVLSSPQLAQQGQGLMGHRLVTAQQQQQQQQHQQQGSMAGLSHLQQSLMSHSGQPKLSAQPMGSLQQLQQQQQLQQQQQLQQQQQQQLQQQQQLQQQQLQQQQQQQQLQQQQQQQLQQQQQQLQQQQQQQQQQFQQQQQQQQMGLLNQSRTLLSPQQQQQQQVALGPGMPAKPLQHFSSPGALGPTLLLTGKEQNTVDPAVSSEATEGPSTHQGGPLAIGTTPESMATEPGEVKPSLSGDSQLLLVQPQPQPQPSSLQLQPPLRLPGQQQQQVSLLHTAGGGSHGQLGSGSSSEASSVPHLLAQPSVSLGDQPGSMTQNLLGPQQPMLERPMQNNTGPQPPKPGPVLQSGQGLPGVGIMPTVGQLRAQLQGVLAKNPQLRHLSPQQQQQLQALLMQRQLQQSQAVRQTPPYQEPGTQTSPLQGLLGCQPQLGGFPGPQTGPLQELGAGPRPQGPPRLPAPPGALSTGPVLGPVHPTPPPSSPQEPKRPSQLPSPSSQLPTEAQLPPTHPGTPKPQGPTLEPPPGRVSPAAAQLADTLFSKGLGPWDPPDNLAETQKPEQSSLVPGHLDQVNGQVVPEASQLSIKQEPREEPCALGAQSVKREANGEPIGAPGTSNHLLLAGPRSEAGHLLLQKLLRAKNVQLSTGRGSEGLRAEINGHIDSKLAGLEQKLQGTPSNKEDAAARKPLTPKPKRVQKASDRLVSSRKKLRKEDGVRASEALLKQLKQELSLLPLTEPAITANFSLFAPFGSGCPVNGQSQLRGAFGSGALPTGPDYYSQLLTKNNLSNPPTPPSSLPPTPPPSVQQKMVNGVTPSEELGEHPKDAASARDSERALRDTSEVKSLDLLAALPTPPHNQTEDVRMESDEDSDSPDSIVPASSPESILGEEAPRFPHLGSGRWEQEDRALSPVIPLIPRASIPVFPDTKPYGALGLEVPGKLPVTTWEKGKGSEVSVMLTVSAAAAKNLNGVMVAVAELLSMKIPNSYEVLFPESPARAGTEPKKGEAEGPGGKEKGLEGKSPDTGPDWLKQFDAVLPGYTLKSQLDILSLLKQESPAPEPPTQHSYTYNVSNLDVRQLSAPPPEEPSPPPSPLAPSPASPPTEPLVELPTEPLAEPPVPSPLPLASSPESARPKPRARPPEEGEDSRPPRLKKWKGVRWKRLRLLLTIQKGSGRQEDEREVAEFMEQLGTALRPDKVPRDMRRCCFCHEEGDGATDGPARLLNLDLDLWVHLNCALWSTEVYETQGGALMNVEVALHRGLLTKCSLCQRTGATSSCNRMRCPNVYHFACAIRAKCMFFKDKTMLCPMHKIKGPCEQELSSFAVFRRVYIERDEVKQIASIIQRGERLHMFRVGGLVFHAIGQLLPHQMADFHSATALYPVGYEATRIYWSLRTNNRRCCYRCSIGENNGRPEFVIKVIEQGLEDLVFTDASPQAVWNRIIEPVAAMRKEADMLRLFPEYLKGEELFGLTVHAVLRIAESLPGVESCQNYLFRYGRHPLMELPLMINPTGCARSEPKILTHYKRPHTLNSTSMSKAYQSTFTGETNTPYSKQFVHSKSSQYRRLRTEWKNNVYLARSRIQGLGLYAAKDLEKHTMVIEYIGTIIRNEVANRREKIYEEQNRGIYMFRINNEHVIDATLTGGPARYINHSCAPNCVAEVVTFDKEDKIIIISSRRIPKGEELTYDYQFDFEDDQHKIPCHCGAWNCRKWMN
UniProt Q6YP21: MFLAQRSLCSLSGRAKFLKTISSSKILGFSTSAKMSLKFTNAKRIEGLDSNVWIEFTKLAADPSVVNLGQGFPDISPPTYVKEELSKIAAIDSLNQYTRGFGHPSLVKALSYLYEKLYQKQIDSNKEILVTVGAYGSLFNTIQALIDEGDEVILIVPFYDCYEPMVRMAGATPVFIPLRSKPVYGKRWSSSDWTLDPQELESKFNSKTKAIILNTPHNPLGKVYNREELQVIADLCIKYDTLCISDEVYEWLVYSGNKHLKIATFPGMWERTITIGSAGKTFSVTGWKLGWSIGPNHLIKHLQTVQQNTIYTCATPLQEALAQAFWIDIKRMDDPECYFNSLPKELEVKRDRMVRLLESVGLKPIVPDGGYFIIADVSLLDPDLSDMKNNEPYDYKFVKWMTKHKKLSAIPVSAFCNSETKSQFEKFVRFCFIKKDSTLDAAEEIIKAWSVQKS

Assays:
Assay in all cases: log2 fold change, soluble protein after heating vs DMSO (PISA); higher = thermal stabilisation; K562 lysate, 10 uM; active = over 0.2 and 3.5 SD of the protein, either way, in both replicates (recomputed)
vemurafenib = compound: CCCS(=O)(=O)Nc1ccc(F)c(C(=O)c2c[nH]c3ncc(-c4ccc(Cl)cc4)cc23)c1F [vemurafenib]
Method in brief: (§1)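 Soluble protein was defined as the supernatant remaining after 21,000xg for 90 min, following pooling of heated aliquots and adjustment to 0.5% NP-40 at 4°C. Before that, crude K562 extract at 1 mg/mL protein in PBS pH 7.4 with 1 mM MgCl2 was treated with 10 μM compound for 30 min and heated for 3 min across 48°C-58°C. Quantification used TMTpro 16plex LC-MS/MS with channel sums equalised, and values are log-two fold changes in thermal stability relative to solvent controls from duplicates.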

[1] = compound: CCCS(=O)(=O)Nc1ccc(F)c(C(=O)c2c[nH]c3ncc(Cl)cc23)c1F
Method in brief: as §1

barasertib = compound: CCN(CCCOc1ccc2c(Nc3cc(CC(=O)Nc4cccc(F)c4)[nH]n3)ncnc2c1)CCOP(=O)(O)O [barasertib]
Method in brief: as §1

[2] = compound: CC[C@@H]1C(=O)N(C)c2cnc(Nc3ccc(C(=O)NC4CCN(C)CC4)cc3OC)nc2N1C1CCCC1
Method in brief: as §1

volasertib = compound: CC[C@@H]1C(=O)N(C)c2cnc(Nc3ccc(C(=O)N[C@H]4CC[C@H](N5CCN(CC6CC6)CC5)CC4)cc3OC)nc2N1C(C)C [volasertib]
Method in brief: as §1

[3] = compound: CCn1c(C(=O)N(C2CC2)C2CC2)cc2c3c(ncn3C)c(Nc3cc(C)n(C)n3)nc21
Method in brief: as §1

[4] = compound: CCn1cc(-c2ccnc3[nH]c(-c4cccc(CN(C)C)c4)cc23)c(-c2ccc(NC(=O)N(C)C)cc2)n1
Method in brief: as §1

[5] = compound: CN1CCC(CNc2ccc3ncc(-c4cccc(OC(F)(F)F)c4)n3n2)CC1
Method in brief: as §1

saracatinib = compound: CN1CCN(CCOc2cc(OC3CCOCC3)c3c(Nc4c(Cl)ccc5c4OCO5)ncnc3c2)CC1 [saracatinib]
Method in brief: as §1

sotrastaurin = compound: CN1CCN(c2nc(C3=C(c4c[nH]c5ccccc45)C(=O)NC3=O)c3ccccc3n2)CC1 [sotrastaurin]
Method in brief: as §1

Measured: log2 fold change

KPNA1 (UniProt P52294)
inactive: vemurafenib 0.002 | [1] 0.037 | barasertib -0.005 | [2] -0.126 | volasertib -0.036 | [3] -0.017 | [4] -0.005 | [5] -0.041 | saracatinib -0.004 | sotrastaurin 0.042

LAMTOR1 (UniProt Q6IAA8)
inactive: vemurafenib -0.013 | [1] 0.009 | barasertib 0.104 | [2] -0.03 | volasertib 0.064 | [3] -0.046 | [4] -0.112 | [5] -0.07 | saracatinib 0 | sotrastaurin -0.056

KIAA1143 (UniProt Q96AT1)
inactive: vemurafenib -0.02 | [1] -0.012 | barasertib -0.101 | [2] 0.066 | volasertib 0.033 | [3] -0.033 | [4] -0.008 | [5] 0.089 | saracatinib 0.036 | sotrastaurin 0.028

KIF1B isoform 2 (UniProt O60333)
inactive: vemurafenib 0.006 | [1] 0.004 | barasertib 0.048 | [2] 0.014 | volasertib -0.059 | [3] -0.008 | [4] -0.024 | [5] -0.026 | saracatinib 0.007 | sotrastaurin 0.006

LANCL1 (UniProt O43813)
inactive: vemurafenib -0.032 | [1] 0.015 | barasertib -0.01 | [2] -0.145 | volasertib -0.065 | [3] -0.031 | [4] 0.01 | [5] 0.039 | saracatinib 0.008 | sotrastaurin -0.022

KPNA6 (UniProt O60684)
inactive: vemurafenib -0.184 | [1] 0.019 | barasertib 0.007 | [2] -0.063 | volasertib -0.04 | [3] 0.024 | [4] -0.012 | [5] -0.095 | saracatinib 0.006 | sotrastaurin 0.017

KIF11 (UniProt P52732)
inactive: vemurafenib -0.027 | [1] 0.003 | barasertib 0.023 | [2] -0.011 | volasertib -0.024 | [3] 0.025 | [4] -0.055 | [5] 0.018 | saracatinib 0.023 | sotrastaurin 0.026

LAMTOR5 (UniProt O43504)
inactive: vemurafenib -0.066 | [1] 0.029 | barasertib 0.124 | [2] 0.013 | volasertib 0.025 | [3] -0.007 | [4] 0.032 | [5] -0.187 | saracatinib 0.091 | sotrastaurin 0.038

KNL1 (UniProt Q8NG31)
inactive: vemurafenib -0.031 | [1] 0.064 | barasertib 0.011 | [2] -0.015 | volasertib -0.044 | [3] -0.012 | [4] 0.015 | [5] 0 | saracatinib 0.006 | sotrastaurin 0.025

LACTB2 (UniProt Q53H82)
inactive: vemurafenib 0.01 | [1] 0.003 | barasertib 0.004 | [2] 0.044 | volasertib 0.011 | [3] -0.005 | [4] -0.033 | [5] 0.043 | saracatinib 0.012 | sotrastaurin -0.028

KIDINS220 isoform 4 (UniProt Q9ULH0)
inactive: vemurafenib 0.016 | [1] -0.03 | barasertib 0 | [2] 0.035 | volasertib -0.052 | [3] 0.046 | [4] -0.037 | [5] -0.057 | saracatinib 0.026 | sotrastaurin 0.018

KYAT1 (UniProt Q16773)
inactive: vemurafenib 0.002 | [1] 0.001 | barasertib -0.048 | [2] 0.014 | volasertib 0.009 | [3] -0.051 | [4] -0.139 | [5] 0.113 | saracatinib -0.01 | sotrastaurin -0.001

KLHL36 (UniProt Q8N4N3)
inactive: vemurafenib 0.024 | [1] 0.106 | barasertib -0.088 | [2] 0.077 | volasertib -0.127 | [3] 0.1 | [4] -0.006 | [5] -0.048 | saracatinib -0.031 | sotrastaurin 0.099

KIF2C (UniProt Q99661)
inactive: vemurafenib 0.01 | [1] 0.004 | barasertib 0.008 | [2] -0.058 | volasertib -0.023 | [3] 0.016 | [4] 0.006 | [5] -0.015 | saracatinib -0.015 | sotrastaurin 0.02

KLHL18 (UniProt O94889)
inactive: vemurafenib 0 | [1] 0.002 | barasertib 0.013 | [2] -0.017 | volasertib -0.035 | [3] 0.007 | [4] -0.051 | [5] 0.016 | saracatinib -0.025 | sotrastaurin 0.107

KIF4A (UniProt O95239)
inactive: vemurafenib 0.005 | [1] 0.035 | barasertib -0.02 | [2] -0.021 | volasertib -0.055 | [3] 0.003 | [4] 0.013 | [5] -0.07 | saracatinib 0.007 | sotrastaurin -0.003

KIAA1522 isoform 2 (UniProt Q9P206)
inactive: vemurafenib -0.002 | [1] -0.028 | barasertib 0.008 | [2] -0.001 | volasertib 0.008 | [3] 0.039 | [4] 0.024 | [5] 0.007 | saracatinib 0.03 | sotrastaurin -0.023

KMT2D isoform 3 (UniProt O14686)
inactive: vemurafenib 0.012 | [1] 0.028 | barasertib 0.024 | [2] -0.014 | volasertib -0.021 | [3] -0.008 | [4] 0.006 | [5] -0.017 | saracatinib 0.055 | sotrastaurin 0.015

KIFC1 (UniProt Q9BW19)
inactive: vemurafenib -0.008 | [1] 0.037 | barasertib 0.002 | [2] 0.006 | volasertib -0.084 | [3] -0.031 | [4] -0.045 | [5] -0.031 | saracatinib 0.021 | sotrastaurin 0.071

KMT2C isoform 3 (UniProt Q8NEZ4)
inactive: vemurafenib 0 | [1] -0.033 | barasertib 0.006 | [2] -0.041 | volasertib -0.048 | [3] 0.024 | [4] -0.035 | [5] 0.175 | saracatinib -0.008 | sotrastaurin 0

KIF15 (UniProt Q9NS87)
inactive: vemurafenib -0.01 | [1] 0.045 | barasertib 0.016 | [2] -0.018 | volasertib -0.053 | [3] 0.036 | [4] 0.006 | [5] -0.036 | saracatinib 0.019 | sotrastaurin 0

KIF14 (UniProt Q15058)
inactive: vemurafenib 0.027 | [1] 0.021 | barasertib 0.143 | [2] 0.052 | volasertib -0.071 | [3] -0.005 | [4] -0.046 | [5] 0.05 | saracatinib 0.016 | sotrastaurin 0.01

KIFBP (UniProt Q96EK5)
inactive: vemurafenib 0.051 | [1] 0.004 | barasertib 0.035 | [2] -0.081 | volasertib -0.084 | [3] 0.043 | [4] 0 | [5] -0.039 | saracatinib 0.048 | sotrastaurin 0.045

KHDRBS1 (UniProt Q07666)
inactive: vemurafenib -0.025 | [1] 0.004 | barasertib 0.034 | [2] -0.024 | volasertib -0.024 | [3] -0.002 | [4] 0.083 | [5] -0.048 | saracatinib -0.004 | sotrastaurin -0.008

KYAT3 (UniProt Q6YP21)
inactive: vemurafenib -0.034 | [1] 0.001 | barasertib -0.034 | [2] -0.001 | volasertib 0.025 | [3] 0.002 | [4] -0.17 | [5] 0.133 | saracatinib 0.02 | sotrastaurin -0.011

Reprinted from the entries so far (6 entries):
LANCL1 (UniProt O43813)
inactive: vemurafenib -0.032 | [1] 0.015 | barasertib -0.01 | [2] -0.145 | volasertib -0.065 | [3] -0.031 | [4] 0.01 | [5] 0.039 | saracatinib 0.008 | sotrastaurin -0.022

KPNA6 (UniProt O60684)
inactive: vemurafenib -0.184 | [1] 0.019 | barasertib 0.007 | [2] -0.063 | volasertib -0.04 | [3] 0.024 | [4] -0.012 | [5] -0.095 | saracatinib 0.006 | sotrastaurin 0.017

KIF11 (UniProt P52732)
inactive: vemurafenib -0.027 | [1] 0.003 | barasertib 0.023 | [2] -0.011 | volasertib -0.024 | [3] 0.025 | [4] -0.055 | [5] 0.018 | saracatinib 0.023 | sotrastaurin 0.026

LAMTOR5 (UniProt O43504)
inactive: vemurafenib -0.066 | [1] 0.029 | barasertib 0.124 | [2] 0.013 | volasertib 0.025 | [3] -0.007 | [4] 0.032 | [5] -0.187 | saracatinib 0.091 | sotrastaurin 0.038

KNL1 (UniProt Q8NG31)
inactive: vemurafenib -0.031 | [1] 0.064 | barasertib 0.011 | [2] -0.015 | volasertib -0.044 | [3] -0.012 | [4] 0.015 | [5] 0 | saracatinib 0.006 | sotrastaurin 0.025

LACTB2 (UniProt Q53H82)
inactive: vemurafenib 0.01 | [1] 0.003 | barasertib 0.004 | [2] 0.044 | volasertib 0.011 | [3] -0.005 | [4] -0.033 | [5] 0.043 | saracatinib 0.012 | sotrastaurin -0.028

The list continues.

KLC1 isoform 6 (UniProt Q07866)
inactive: vemurafenib 0.003 | [1] 0.004 | barasertib -0.002 | [2] 0.012 | volasertib -0.04 | [3] 0 | [4] 0.019 | [5] -0.063 | saracatinib 0.015 | sotrastaurin -0.011

KIF21A isoform 5 (UniProt Q7Z4S6)
inactive: vemurafenib 0.03 | [1] 0.041 | barasertib 0.005 | [2] -0.038 | volasertib -0.026 | [3] -0.025 | [4] 0.165 | [5] -0.101 | saracatinib 0.037 | sotrastaurin 0.017
